Consider 1 substance from US6582968B2 (Conselho Nacional de Desenvolvimento Cientifico e …, priority 1999, dated 2003).

A short description of this data set: general procedure: Boc solid-phase peptide synthesis; diisopropylcarbodiimide; TBTU for recoupling. The conditions noted are these: whole synthesis.

“Acetyl-Toac-Ser-Tyr-Ser-Met-Glu-His-Phe-Arg-Trp-Gly-Lys-Pro-Val-CONH2” gave a crude yield of 83%.
